Experimental data from US20240400638A1 (River 2 Renal Corp., priority 2021, published 2024).

Test: general procedure: Fmoc solid-phase peptide synthesis; Rink amide AM resin (low loading 0.47 mmol/g; Novabiochem or ChemImpex); DIC 0.5M/Oxyma 1M in DMF
Conditions: whole synthesis, trifluoroacetate salt; for final HPLC purity: UV; for final HPLC purity / isolated yield: scale of the general procedure 0.1-0.2 mmol per batch

Substance	final HPLC purity	isolated yield	crude mass	isolated mass	crude mass (scale 0.4 mmol in total)	isolated mass (scale 0.1 mmol)
Ac-L-E-G-R-E-K-V-R-A-K(Ac)-I-Aib-Aib-E-G-K(PEG2DGA-PEG2DGA-PEG.s-ub.2DGA-gE-gE-gE-Palm)-S-T-F-S-Mly-R-A-K(Ac)-NH2	99%	8%	220 mg	37 mg	–	–
Ac-L-E-G-R-E-K-V-R-A-K(Ac)-I-Aib-Aib-E-G-K(TTDS-TTDS-TTDS-gE-gE-gE-Stea)-S-T-F-S-Mly-R-A-K(Ac)-NH2	98%	–	–	–	720 mg	–
Ac-L-E-G-R-E-K-V-R-A-K(Ac)-I-Aib-Aib-E-G-K(TTDS-TTDS-TTDS-gE-gE-gE-Stea)-S-T-W-S-Aib-R-K-K(Ac)-NH2	99%	–	–	–	–	20 mg
Ac-L-E-G-R-E-K-V-R-A-K(Ac)-I-Aib-Aib-E-G-K(TTDS-TTDS-gE-gE-gE-Stea)-S-T-W-S-Aib-R-K-K(Ac)-NH2	97%	8%	–	38 mg	–	–
PEPTIDE1{[ac].L.E.G.R.E.K.V.R.A.[K(Ac)].I.[Aib].[Aib].E.G.K.S.T.F.S.[Mly].R.A.[K(Ac)].[am]}|PEPTIDE2{[Palm].[gE].[gE].[gE].[TTDS].[TTDS].[TTDS]}$PEPTIDE1,PEPTIDE2,17:R3-7:R2$$$V2.0	99%	17.5%	–	428 mg	–	–

Strings that start with PEPTIDE1 are HELM notation: dots part the residues, brackets hold end groups and non-standard residues.
